{"source": "patent US11395835B2", "about": "“Use of common gamma chain cytokines for the visualization, isolation and genetic modification of memory T lymphocytes” (OSPEDALE SAN RAFFAELE S.R.L., priority 2005, dated 2022)", "format_in_all_cases": "cell-based", "key": {"[1]": {"tested_on": "CD4+ T cells from tumor-draining LN of TS/A-LACK tumor-bearing 16.2β mice", "assay": "IL-7-driven accumulation of fast-proliferating memory CD4+ T cells with inhibitors", "conditions": "IL-7-driven cultures, 7 days", "source_text": "FIG. 11. Intermediate memory CD4^+ T cells accumulate in the presence of IL-7 in a cell-density dependent, CsA-sensitive manner. Cells derived from the axillary, brachial and inguinal LN of naïve (A, B) and TS/A-LACK tumor-bearing (C-E) 16.20 mice were labeled with CFSE and respectively cultured for 7 days in plain medium, in the presence of LACK peptide (Ag) (A, B) or IL-7 (C-E) in the absence (nil) or in the presence of the indicated inhibitors. At the end of the culture the cells were stimulated for 5 h with L/28 aAPCs, and intracellular cytokine release was determined. A-D) Histograms show the CFSE dilution profile of equivalent numbers of (7×10^4) CD4^+ T cells. In A and C the thin lines reflect the CFSE profile of CD4+ T cells cultured in plain medium, while the thick lines depict the CFSE profile of CD4+ T cells cultured in Ag or IL-7, respectively. […]\n5 μm polystyrene sulfate latex beads (Interfacial Dynamics) were coated with I-A^d/LACK dimers (20 μg/ml) and anti-CD28 mAb (37.51; 2 μg/ml) (LACK aAPC) or with anti-CD28 mAb only (control aAPC). Coating of the proteins was monitored by flow cytometry analysis. […] The total number of Ag-specific IL-2^+/IFN-γ^+ T cells was determined by multiplying the percentage by the total number of Trypan Blue-negative LN cells."}, "[2]": {"tested_on": "fast-proliferating human peripheral blood CD4+ T cells", "assay": "IL-7-driven culture of human PBMC with inhibitors (CFSE)", "conditions": "IL-7, 7 days"}, "[3]": {"tested_on": "naïve CD4+ T cells of 16.2β mice stimulated with LACK-pulsed APC", "assay": "Ag-driven proliferation of naive T cells with inhibitors (CFSE)", "conditions": "7 days", "source_text": "FIG. 11. Intermediate memory CD4^+ T cells accumulate in the presence of IL-7 in a cell-density dependent, CsA-sensitive manner. Cells derived from the axillary, brachial and inguinal LN of naïve (A, B) and TS/A-LACK tumor-bearing (C-E) 16.20 mice were labeled with CFSE and respectively cultured for 7 days in plain medium, in the presence of LACK peptide (Ag) (A, B) or IL-7 (C-E) in the absence (nil) or in the presence of the indicated inhibitors. At the end of the culture the cells were stimulated for 5 h with L/28 aAPCs, and intracellular cytokine release was determined. A-D) Histograms show the CFSE dilution profile of equivalent numbers of (7×10^4) CD4^+ T cells. In A and C the thin lines reflect the CFSE profile of CD4+ T cells cultured in plain medium, while the thick lines depict the CFSE profile of CD4+ T cells cultured in Ag or IL-7, respectively. In B and D, thin line: cells cultured in the absence of the inhibitor, thick line: cells cultured in the presence of the inhibitor. E) Dot plots are shown after gating on viable CD4^+ T cells. Percentages indicate the frequency of LACK-specific cytokine secreting cells.\nTwenty days after tumor cell injection mice were sacrificed and the axillary, brachial and inguinal peripheral lymph nodes (LN) draining and distal (non draining LN) to the site of tumor growth were recovered. […]"}}, "note": "For at least one compound, name, drawing or mass did not settle the structure.", "data": [{"smiles": "CO[C@H]1C[C@@H]2CC[C@@H](C)[C@@](O)(O2)C(=O)C(=O)N2CCCC[C@H]2C(=O)O[C@H]([C@H](C)C[C@@H]2CC[C@@H](O)[C@H](OC)C2)CC(=O)[C@H](C)/C=C(\\C)[C@@H](O)[C@@H](OC)C(=O)[C@H](C)C[C@H](C)/C=C/C=C/C=C/1C", "note": "[Rapamycin]", "values": [{"measurement": "effect on IL-7-driven accumulation of fast-dividing CFSEdim CD4+ T cells and LACK-specific cells", "setting": "[1]", "value": "completely abolished"}, {"measurement": "effect on IL-7-driven accumulation of fast-proliferating CD4+ T cells", "setting": "[2]", "value": "sensitive"}, {"measurement": "effect on Ag-driven T cell proliferation", "setting": "[3]", "value": "only delayed"}]}]}
